The supplement of paper PMC10689618
Some of the results follow. Repeats are few or missing, and single values can be far off.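 Labelled rat cortical synaptosomes were engulfed by primary human fetal astrocytes. Engulfment equaled a red/green ratio, corrected for calcein live-cell signal and normalized to the plate median. Compounds were toxic when calcein dropped over 30%, and reduced phagocytosis when below 70% of the median above 5 µM.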

Test system: Human fetal astrocytes
Test: loss of total cells relative to no-compound high-control median (toxicity); higher = more toxic (fewer cells)
Conditions: 22.22 µM; 24 h

SMILES | loss of total cells [%]
C[C@@H]1CC[C@@]2(OC1)O[C@H]1C[C@H]3[C@@H]4CC[C@H]5C[C@@H](O)CC[C@]5(C)[C@H]4CC[C@]3(C)[C@H]1[C@@H]2C | -1.9
c1coc(CNc2ncnc3[nH]cnc23)c1 | 13.6
OC(c1cc(C(F)(F)F)nc2c(C(F)(F)F)cccc12)C1CCCCN1 (stereo not drawn) | 50.8
Oc1c(Cl)cc(Cl)c(Cl)c1Cc1c(O)c(Cl)cc(Cl)c1Cl | 54.4
O=C(O)CCCC[C@@H]1SC[C@@H]2NC(=O)N[C@@H]21 | 7.8
O=c1cc(-c2ccc(O)c(O)c2)oc2cc(O)cc(O)c12 | 25.2
CCC(CCC(C)C1CCC2C3CCC4CC(O)CCC4(C)C3CCC12C)C(C)C (stereo not drawn) | 21.5
Nc1nc(=S)c2ncn([C@@H]3O[C@H](CO)[C@@H](O)[C@H]3O)c2[nH]1 | -5.3
C=CC(C1=CC(=O)C(OC)=CC1=O)c1ccc(O)cc1 (stereo not drawn) | 35.2
O=C1C(CC[S+]([O-])c2ccccc2)C(=O)N(c2ccccc2)N1c1ccccc1 (stereo not drawn) | 34.3
CN1CCCN=C1/C=C/c1cccc(O)c1 | 13
O=C(O)c1ccc(S(=O)(=O)N(Cl)Cl)cc1 | 47.7
COc1ccc(-c2cc(=O)c3c(OC)c(OC)c(OC)c(OC)c3o2)cc1 | 20
COc1ccc2oc(-c3ccccc3)c(OC)c(=O)c2c1 | 8.9
CN1CCc2c(c3ccccc3n2Cc2ccccc2)C1 | -7.6
CC[C@@]1(O)C(=O)OCc2c1cc1n(c2=O)Cc2cc3c(CN(C)C)c(O)ccc3nc2-1 | 7.4
N=C(N)NCCN1CCCCCCC1 | 27.7
N[C@@H](COCc1ccccc1)C(=O)O | -3.7

Part of the list above in order of number of heavy atoms, smallest number first.
SMILES | loss of total cells [%]
N[C@@H](COCc1ccccc1)C(=O)O | -3.7
Nc1nc(=S)c2ncn([C@@H]3O[C@H](CO)[C@@H](O)[C@H]3O)c2[nH]1 | -5.3
COc1ccc(-c2cc(=O)c3c(OC)c(OC)c(OC)c(OC)c3o2)cc1 | 20
